Values from PubChem BioAssay AID504808 (Drosophila RNAi Screening Center, 2011)
Screen: 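Fly genes required to hold E2F transcription in check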 (primary screen). System: Drosophila S2 cells. Reagent: long dsRNA against Drosophila genes. Measurement: 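Firefly luciferase driven by E2F sites, normalised to Renilla luciferase on the same minimal promoter, measured by plate reader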. Scale: E2F firefly: higher = more E2F reporter activity; Renilla normaliser: higher = more normaliser reporter signal. Active means: 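Called active if the normalised E2F reporter went up by over 50%; the cutoff is arbitrary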.
In all, the deposit lists about 21,000 reagents; shown is an unselected part of those with a known target gene and a result. In the full data, 18 (0.084%) were called active. 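Raw counts without plate normalisation, one of two replicates; the ratio scores behind the calls were not deposited.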 Unmarked entries are inactive. Not given: the amount of reagent, the time to read-out.

no.	gene	PubChem SID	E2F firefly, rep 1	Renilla normaliser, rep 1
1	Rh50	SID104188484	69735	3432
2	CG6652	SID104190478	73292	3525
3	CSN7	SID104186599	2469	233
4	CSN7	SID104186600	1.33e5	5492
5	Atxn7	SID104180518	84797	3405
6	Ak2	SID104183835	1.26e5	4623
7	salto	SID104186083	2764	198
8	CG11791	SID104194183	72987	3124
9	CG7768	SID104190706	76778	3686
10	CG10011	SID104193966	1735	880
11	CG13159	SID104186075	91881	3598
12	CG15641	SID104199469	1.36e5	5833
13	CalpC	SID104199665	1.21e5	5043
14	Tret1-2	SID104186909	1.04e5	4360
15	Cyp6a8	SID104187176	3007	187
16	Dr	SID104196794	78024	1044
17	CG9095	SID104199942	1.49e5	6251
18	Lsm11	SID104186030	1.37e5	4776
19	Ankrd49	SID104181686	1.05e5	4408
20	DIP-alpha	SID104197683	58985	3859
21	DIP-alpha	SID104197684	71469	5141
22	DNAlig3	SID104194993	1.48e5	6703
23	Elba3	SID104180261	93994	4115
24	CG4998	SID104190258	1.62e5	6193
25	CG8026	SID104186847	3271	205
26	CG8026	SID104186848	1.33e5	4992
27	CG32473	SID104194144	1.18e5	5653
28	CG32473	SID104196238	83775	3218
29	TAF1B	SID104195793	76378	3323
30	Sidpn	SID104181848	79483	3455
31	CG32437	SID104191552	1.48e5	6501
32	CG2931	SID104192116	1.20e5	6264
33	Pepck1	SID104187297	1.42e5	5339
34	mud	SID104198811	75990	2838
35	Dad1	SID104182055	1.53e5	5429
36	Cyp28d1	SID104183090	83280	3882
37	kmr	SID104192778	83660	2989
38	kmr	SID104194619	87221	5461
39	kmr	SID104194620	1.04e5	4932
40	kmr	SID104196264	80471	3882
41	Spn77Ba	SID104190485	81018	3788
42	AOX1	SID104195131	79964	3975
43	CG32650	SID104199691	7623	764
44	CG8012	SID104190743	97042	4125
45	CG14416	SID104198431	1.52e5	7561
46	rst	SID104197035	77151	3435
47	rst	SID104198620	1.26e5	6542
48	CG13481	SID104189815	1.88e5	8455
49	RpL5	SID104183593	64308	4535
50	Gr39a	SID104181633	1.23e5	4785
51	Gr39a	SID104181634	1.13e5	5843
52	Mst57Da	SID104196536	1.18e5	6396
53	CG14088	SID104189884	1.25e5	5788
54	TrpRS	SID104193889	1.17e5	6684
55	CG8419	SID104182879	1.51e5	4683
56	Naa30B	SID104188037	88595	4284
57	UQCR-C1	SID104195300	65201	3686
58	Ephrin	SID104196957	1.24e5	6132
59	Dys	SID104193152	86282	2935
60	Dys	SID104193156	89105	2578
61	Dys	SID104195052	1.29e5	7166
62	Dys	SID104196010	1.37e5	7459
63	Dys	SID104196011	1.32e5	8032
64	Dys	SID104196012	1.49e5	8723
65	Dys	SID104196727	1.32e5	7235
66	AdamTS-A	SID104194784	80849	3827
67	AdamTS-A	SID104195758	1.04e5	5174
68	CG15375	SID104197837	1.22e5	5692
69	muskelin	SID104187065	88743	3945
70	CG10914	SID104185802	1.62e5	5569
71	CG7810	SID104182864	99184	3853
72	Obp56g	SID104186224	1.46e5	5589
73	RpL32	SID104196627	54882	4429
74	CG31921	SID104179805	1.32e5	5432
75	Dnah3	SID104187922	1.26e5	4494
76	Dnah3	SID104188305	1.09e5	4219
77	l(2)dtl	SID104184489	95278	2936
78	CG6865	SID104190524	1.54e5	8228
79	CG33272	SID104188908	1.02e5	4590
80	CG9396	SID104196279	1.42e5	5907
81	Crtc	SID104190370	1.06e5	5193
82	Smr	SID104199287	5411	872
83	Smr	SID104200080	55374	4156
84	Capa	SID104194850	1744	1040

8 of these entries, set out differently:
gene | PubChem SID | E2F firefly, rep 1 | Renilla normaliser, rep 1
CSN7 | SID104186599 | 2469 | 233
CSN7 | SID104186600 | 1.33e5 | 5492
Atxn7 | SID104180518 | 84797 | 3405
Ak2 | SID104183835 | 1.26e5 | 4623
salto | SID104186083 | 2764 | 198
CG11791 | SID104194183 | 72987 | 3124
CG7768 | SID104190706 | 76778 | 3686
CG10011 | SID104193966 | 1735 | 880
